From doi:10.1101/2025.06.30.651016

Molecular target: T1, human ASIC1a C-terminally fused to eGFP (human) (UniProt P78348)
T1 sequence: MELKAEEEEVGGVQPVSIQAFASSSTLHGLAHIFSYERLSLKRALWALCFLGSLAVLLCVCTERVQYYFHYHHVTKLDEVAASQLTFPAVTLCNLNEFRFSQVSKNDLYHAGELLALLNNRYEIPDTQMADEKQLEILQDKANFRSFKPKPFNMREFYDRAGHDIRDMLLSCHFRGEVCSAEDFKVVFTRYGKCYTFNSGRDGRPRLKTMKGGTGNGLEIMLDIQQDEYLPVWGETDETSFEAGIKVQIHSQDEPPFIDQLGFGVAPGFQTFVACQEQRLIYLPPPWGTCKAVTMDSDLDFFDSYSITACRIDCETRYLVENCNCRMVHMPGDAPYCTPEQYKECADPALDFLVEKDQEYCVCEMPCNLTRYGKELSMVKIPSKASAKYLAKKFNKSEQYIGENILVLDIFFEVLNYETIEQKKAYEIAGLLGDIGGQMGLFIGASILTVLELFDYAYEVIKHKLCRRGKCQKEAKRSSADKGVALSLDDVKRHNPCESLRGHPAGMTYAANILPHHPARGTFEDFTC
Experiment: affinity purification with mass spectrometry

binding: binds
B1: human monocarboxylate transporter 1 (MCT1), endogenous (protein, UniProt P53985 1-500)
chain: MPPAVGGPVGYTPPDGGWGWAVVIGAFISIGFSYAFPKSITVFFKEIEGIFHATTSEVSWISSIMLAVMYGGGPISSILVNKYGSRIVMIVGGCLSGCGLIAASFCNTVQQLYVCIGVIGGLGLAFNLNPALTMIGKYFYKRRPLANGLAMAGSPVFLCTLAPLNQVFFGIFGWRGSFLILGGLLLNCCVAGALMRPIGPKPTKAGKDKSKASLEKAGKSGVKKDLHDANTDLIGRHPKQEKRSVFQTINQFLDLTLFTHRGFLLYLSGNVIMFFGLFAPLVFLSSYGKSQHYSSEKSAFLLSILAFVDMVARPSMGLVANTKPIRPRIQYFFAASVVANGVCHMLAPLSTTYVGFCVYAGFFGFAFGWLSSVLFETLMDLVGPQRFSSAVGLVTIVECCPVLLGPPLLGRLNDMYGDYKYTYWACGVVLIISGIYLFIGMGINYRLLAKEQKANEQKKESKEEETSIDVAGKPNEVTKAAESPDQKDTDGGPKEEESPV

No constants are given. Whether binding was seen depends on the method and setting. In cells and extracts the contact can be indirect. These calls come from enrichment with a bait or labelling near it, and not all partners need be listed. Where a sequence is shown, tags or fusion partners need not be part of it.
